Test results taken from publication PMC4206449.
No constants are given. Whether binding was seen depends on the method and setting. For some of these results: Binding seen in cells or lysates may run through a third protein. Some binding calls cover weakened binding; strength is not graded here. For some of these results: Tags and fused reporters may be left off the sequences shown.

Sequences of proteins named here, by UniProt entry; tags and fusion partners are left off.
UniProt Q16637: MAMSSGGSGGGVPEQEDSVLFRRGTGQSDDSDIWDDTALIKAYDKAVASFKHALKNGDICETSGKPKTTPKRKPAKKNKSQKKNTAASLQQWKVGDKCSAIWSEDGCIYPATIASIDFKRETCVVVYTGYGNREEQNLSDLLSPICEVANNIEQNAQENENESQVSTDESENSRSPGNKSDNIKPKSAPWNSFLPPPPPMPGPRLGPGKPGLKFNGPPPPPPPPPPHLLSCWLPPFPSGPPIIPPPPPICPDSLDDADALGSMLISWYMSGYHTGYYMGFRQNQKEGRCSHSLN

How the values were obtained:
[1] = molecular target: recombinant His-tagged SMN full length protein (murine), P97801; assay: co-IP; 250 or 500 ng rhnRNP R and 250 ng rSMN with GammaBind Plus Sepharose beads and 1 ug antibody against hnRNP R or SMN (or control IgG), 1 h at RT; 50 mM sodium phosphate pH 8.0, 5% glycerol, 50 mM NaCl, 0.1% Tween; Western blot; both purified; details: remark: other sources report otherwise
[2] = molecular target: T1, recombinant His-tagged hnRNP R full length protein (murine), Q8VHM5; assay: as above; details: remark: other sources report otherwise
T1 chain: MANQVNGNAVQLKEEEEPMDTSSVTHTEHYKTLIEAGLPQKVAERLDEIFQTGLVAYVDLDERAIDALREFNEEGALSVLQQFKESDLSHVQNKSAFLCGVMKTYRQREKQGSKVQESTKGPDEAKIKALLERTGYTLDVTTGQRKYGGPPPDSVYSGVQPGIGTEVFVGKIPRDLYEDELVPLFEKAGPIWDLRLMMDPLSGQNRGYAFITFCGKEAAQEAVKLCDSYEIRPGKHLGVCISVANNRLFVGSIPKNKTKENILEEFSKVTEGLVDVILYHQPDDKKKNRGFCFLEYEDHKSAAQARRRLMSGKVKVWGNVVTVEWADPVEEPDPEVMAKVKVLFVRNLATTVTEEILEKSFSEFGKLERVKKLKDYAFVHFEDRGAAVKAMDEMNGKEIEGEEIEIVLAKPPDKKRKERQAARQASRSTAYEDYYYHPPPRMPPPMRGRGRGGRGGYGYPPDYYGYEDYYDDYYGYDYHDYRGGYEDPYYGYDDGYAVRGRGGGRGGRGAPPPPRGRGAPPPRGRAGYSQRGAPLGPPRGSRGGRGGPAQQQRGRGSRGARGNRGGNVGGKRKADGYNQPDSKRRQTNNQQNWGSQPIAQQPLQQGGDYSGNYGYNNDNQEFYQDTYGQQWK

[3] = molecular target: T2, hnRNP R (endogenous, mouse) (mouse (endogenous in primary motoneurons and E18 spinal cord)), Q8VHM5; assay: co-IP; cytosolic fraction of E18 mouse spinal cord; IP with anti-hnRNP R (Abcam ab30930) or anti-Smn (BD 610646), 6 h at 4°C, protein G or A agarose; Western blot; details: remark: other sources report otherwise
T2 chain: T1 chain

[4] = molecular target: T2, hnRNP R (endogenous, mouse) (mouse …); assay: co-IP; cytosolic fraction of primary mouse motoneurons cultured 7DIV on laminin-111; IP with anti-hnRNP R (Abcam ab30930) or anti-Smn (BD 610646), 6 h at 4°C, protein G or A agarose; Western blot; details: remark: other sources report otherwise
[5] = molecular target: T3, Smn (endogenous, mouse) (mouse (endogenous in primary motoneurons and E18 spinal cord)), P97801; assay: co-IP; cytosolic fraction of E18 mouse spinal cord; IP with anti-hnRNP R (Abcam ab30930) or anti-Smn (BD 610646), 6 h at 4°C, protein G or A agarose; Western blot; details: remark: other sources report otherwise
[6] = molecular target: T3, Smn (endogenous, mouse) (mouse …); assay: co-IP; cytosolic fraction of primary mouse motoneurons cultured 7DIV on laminin-111; IP with anti-hnRNP R (Abcam ab30930) or anti-Smn (BD 610646), 6 h at 4°C, protein G or A agarose; Western blot; details: remark: other sources report otherwise
[7] = molecular target: Smn (endogenous, HEK293T cells) (human (endogenous in HEK293T)) (UniProt Q16637); assay: co-IP; cytosolic and soluble nuclear fractions of HEK293T cells; IP of Smn or hnRNP R, Western blot

B1: recombinant His-tagged hnRNP R full length protein, Q8VHM5 1-632 (protein)
chain: T1 chain
- binding [1]: binds

B2: recombinant His-tagged SMN full length protein, P97801 1-288 (protein)
chain: MAMGSGGAGSEQEDTVLFRRGTGQSDDSDIWDDTALIKAYDKAVASFKHALKNGDICETPDKPKGTARRKPAKKNKSQKKNATTPLKQWKVGDKCSAVWSEDGCIYPATITSIDFKRETCVVVYTGYGNREEQNLSDLLSPTCEVANSTEQNTQENESQVSTDDSEHSSRSLRSKAHSKSKAAPWTSFLPPPPPMPGSGLGPGKPGLKFNGPPPPPPLPPPPFLPCWMPPFPSGPPIIPPPPPISPDCLDDTDALGSMLISWYMSGYHTGYYMGFRQNKKEGKCSHTN
- binding [2]: binds

B3: Smn (endogenous, mouse), P97801 1-288 (protein)
chain: B2 chain
- binding [3]: binds
- binding [4]: binds

B4: hnRNP R (endogenous, mouse), Q8VHM5 1-632 (protein)
chain: T1 chain
- binding [5]: binds
- binding [6]: binds

B5: hnRNP R (endogenous, HEK293T cells) (protein, UniProt O43390 1-633)
chain: MANQVNGNAVQLKEEEEPMDTSSVTHTEHYKTLIEAGLPQKVAERLDEIFQTGLVAYVDLDERAIDALREFNEEGALSVLQQFKESDLSHVQNKSAFLCGVMKTYRQREKQGSKVQESTKGPDEAKIKALLERTGYTLDVTTGQRKYGGPPPDSVYSGVQPGIGTEVFVGKIPRDLYEDELVPLFEKAGPIWDLRLMMDPLSGQNRGYAFITFCGKEAAQEAVKLCDSYEIRPGKHLGVCISVANNRLFVGSIPKNKTKENILEEFSKVTEGLVDVILYHQPDDKKKNRGFCFLEYEDHKSAAQARRRLMSGKVKVWGNVVTVEWADPVEEPDPEVMAKVKVLFVRNLATTVTEEILEKSFSEFGKLERVKKLKDYAFVHFEDRGAAVKAMDEMNGKEIEGEEIEIVLAKPPDKKRKERQAARQASRSTAYEDYYYHPPPRMPPPIRGRGRGGGRGGYGYPPDYYGYEDYYDDYYGYDYHDYRGGYEDPYYGYDDGYAVRGRGGGRGGRGAPPPPRGRGAPPPRGRAGYSQRGAPLGPPRGSRGGRGGPAQQQRGRGSRGSRGNRGGNVGGKRKADGYNQPDSKRRQTNNQQNWGSQPIAQQPLQQGGDYSGNYGYNNDNQEFYQDTYGQQWK
- binding [7]: no binding
